The list does not hold the whole screen: it is rich in T/C values a quarter to a half above the control, in often repeated tests (any T/C) and in doses without a T/C. Further doses and runs are listed elsewhere. T/C gives the treated animals as a percentage of the vehicle group. Some doses have a count of surviving animals in place of a T/C: the source files T/C as zero there, which appears to mark a toxic dose or a test without result, not a measured value. Some doses without a T/C left all or most animals alive at the check, yet need not have been tolerated: survival well below the control is almost never listed, so the zero probably covers shortened survival too. Survivors were counted at the toxicity check, usually on the fifth day, unless a day is given; later deaths do not show. Schedule codes are those of the source, read here as Q, the interval in days (D) or hours (H), X, the number of doses. Where survival is the endpoint, this PubChem deposit counts one and a half times the control or more as active, and values a quarter to a half above the control carry no call in these data; other NCI protocols may use other cut-offs. Some T/C values are followed by the survivors on the day toxicity was checked, most often the fifth; where none is given, no animal had died by that day. Some entries were tested several times; the values are given in rising order.
System: P388 leukemia ip, CD2F1 mice, survival T/C
Test: NCI In Vivo Anticancer Drug Screen. Data for tumor model P388 Leukemia (intraperitoneal) in CD2F1 (CDF1) mice
Settings: T/C endpoint: median survival time, higher T/C = longer survival
[1] = dose: 200.0 mg/kg/injection, schedule: Q01DX001 (ip), vehicle: saline with Tween-80
[2] = dose: 400.0 mg/kg/injection, schedule: Q01DX001 (ip), vehicle: saline with Tween-80
[3] = dose: 100.0 mg/kg/injection, schedule: Q04DX002 (ip), vehicle: Klucel (hydroxypropylcellulose) (HPC)
[4] = dose: 200.0 mg/kg/injection, schedule: Q04DX002 (ip), vehicle: Klucel (hydroxypropylcellulose) (HPC)
[5] = dose: 400.0 mg/kg/injection, schedule: Q04DX002 (ip), vehicle: Klucel (hydroxypropylcellulose) (HPC)
[6] = dose: 120.0 mg/kg/injection, schedule: Q01DX005 (ip), vehicle: saline with Tween-80
[7] = dose: 240.0 mg/kg/injection, schedule: Q01DX005 (ip), vehicle: saline with Tween-80
[8] = dose: 240.0 mg/kg/injection, schedule: Q01DX005 (ip), vehicle: Klucel (hydroxypropylcellulose) (HPC)
[9] = dose: 50.0 mg/kg/injection, schedule: Q01DX001 (ip), vehicle: Klucel (hydroxypropylcellulose) (HPC)
[10] = dose: 400.0 mg/kg/injection, schedule: Q01DX001 (ip), vehicle: Klucel (hydroxypropylcellulose) (HPC)

## CC(=O)N(C)N=Nc1ccc(C)cc1
dose: 200.0 mg/kg/injection, schedule: Q01DX009 (ip), vehicle: saline
  T/C: 126 % of control
dose: 400.0 mg/kg/injection, schedule: Q01DX009 (ip), vehicle: saline
  survivor count: 5 of 6

## CC1=C(C)C(=O)C(C(C)(C)CC(=O)n2cc(F)c(=O)[nH]c2=O)=C(C)C1=O
[1]
  T/C: 126 % of control
[2]
  survivor count: 6 of 6

## CCCCCC[N+](CCCCCC)(CCCCCC)CCCCCC
dose: 1.3 mg/kg/injection, schedule: Q01DX009 (ip), vehicle: saline
  T/C: 149 % of control
dose: 2.0 mg/kg/injection, schedule: Q01DX009 (ip), vehicle: saline
  T/C: 132 % of control
dose: 3.0 mg/kg/injection, schedule: Q01DX009 (ip), vehicle: saline
  T/C: 132 % of control [4 of 6 alive]
dose: 4.5 mg/kg/injection, schedule: Q01DX009 (ip), vehicle: saline
  survivor count: 2 of 6

## C#CCOC(=O)c1ccc(C(=O)OCC#C)cc1
dose: 400.0 mg/kg/injection, schedule: Q04DX003 (ip), vehicle: saline with Tween-80
  survivor count: 4 of 6

## COc1cccc2c1C(=O)c1c(O)c3c(c(O)c1C2=O)CC(O)(/C(C)=N/NC(=O)C(=O)N/N=C(\C)C1(O)Cc2c(O)c4c(c(O)c2C(OC2CC(N)C(O)C(C)O2)C1)C(=O)c1c(OC)cccc1C4=O)CC3OC1CC(N)C(O)C(C)O1 (stereo not drawn)
dose: 0.78 mg/kg/injection, schedule: Q01DX009 (ip), vehicle: water
  T/C: 139 and 144 % of control
dose: 25.0 mg/kg/injection, schedule: Q01DX009 (ip), vehicle: water
  survivor count: 3 of 3

## CN(C)CC(CN(C)C)C(=O)/C=C/c1ccc(OCc2ccccc2)cc1
dose: 25.0 mg/kg/injection, schedule: Q01DX005 (ip), vehicle: saline
  survivor count: 0 of 6
dose: 50.0 mg/kg/injection, schedule: Q01DX005 (ip), vehicle: saline
  survivor count: 0 of 6
dose: 100.0 mg/kg/injection, schedule: Q01DX005 (ip), vehicle: saline
  survivor count: 0 of 6
dose: 200.0 mg/kg/injection, schedule: Q01DX005 (ip), vehicle: saline
  survivor count: 0 of 6

## CC(CCCN(CCCl)CCCl)Nc1ccnc2cc(Cl)ccc12 (stereo not drawn)
dose: 0.25 mg/kg/injection, schedule: Q01DX009 (ip), vehicle: saline + alcohol
  T/C: 127 % of control [5 of 6 alive]
dose: 0.44 mg/kg/injection, schedule: Q01DX009 (ip), vehicle: saline
  T/C: 127 % of control
dose: 0.5 mg/kg/injection, schedule: Q01DX009 (ip), vehicle: saline + alcohol
  T/C: 145 % of control [5 of 6 alive]
dose: 1.0 mg/kg/injection, schedule: Q01DX009 (ip), vehicle: saline
  T/C: 140 % of control

## CCOC(=O)CN1C(=O)S/C(=C2\C(=O)N(C)c3ccc(Br)cc32)C1=O
[3]
  survivor count: 6 of 6
[4]
  survivor count: 6 of 6
[5]
  survivor count: 6 of 6

## CSc1nc(NC(C)C)nc(NC(C)C)n1
dose: 200.0 mg/kg/injection, schedule: Q04DX003 (ip), vehicle: saline with Tween-80
  survivor count: 6 of 6

## COC1OCN(Cc2ccccc2)CC1(C)C (stereo not drawn)
dose: 200.0 mg/kg/injection, schedule: Q01DX009 (ip), vehicle: saline with Tween-80
  survivor count: 6 of 6

## Cc1cc2cc3c(=O)[nH]c(=O)nc-3n(CC(O)C(O)C(O)CO)c2cc1C (stereo not drawn)
[6]
  survivor count: 6 of 6
[7]
  survivor count: 6 of 6

## O=C1Cc2[nH]ccc2C(=O)N1
dose: 100.0 mg/kg/injection, schedule: Q01DX001 (ip), vehicle: saline with Tween-80
  survivor count: 1 of 6
[1]
  survivor count: 1 of 6
[2]
  survivor count: 0 of 6

## CN(C)CC(CN(C)C)C(=O)c1ccc2c(c1)OCO2
dose: 60.0 mg/kg/injection, schedule: Q01DX005 (ip), vehicle: saline
  survivor count: 3 of 6
dose: 120.0 mg/kg/injection, schedule: Q01DX005 (ip), vehicle: saline
  survivor count: 0 of 6
dose: 240.0 mg/kg/injection, schedule: Q01DX005 (ip), vehicle: saline
  survivor count: 0 of 6

## c1ccc(Sc2c(-c3ccccc3)c(-c3ccccc3)c3n2CCC3)cc1
[8]
  survivor count: 6 of 6

## O=Nc1ccc(O)c2ncccc12
dose: 200.0 mg/kg/injection, schedule: Q01DX001 (ip), vehicle: Klucel (hydroxypropylcellulose) (HPC)
  T/C: 130 % of control [5 of 6 alive]

## Nc1ccc(-c2cc3ccc(C4=NCCN4)cc3[nH]2)cc1
dose: 120.0 mg/kg/injection, schedule: Q01DX005 (ip), vehicle: Klucel (hydroxypropylcellulose) (HPC)
  T/C: 127 % of control
[8]
  T/C: 129 % of control

## N=C1C=CC(=C(c2ccc(N)cc2)c2ccc(N)cc2)C=C1
dose: 1.56 mg/kg/injection, schedule: Q01DX005 (ip), vehicle: saline with Tween-80
  T/C: 130 % of control
dose: 3.12 mg/kg/injection, schedule: Q01DX005 (ip), vehicle: saline with Tween-80
  T/C: 139 % of control
dose: 3.12 mg/kg/injection, schedule: Q01DX005 (ip), vehicle: saline
  T/C: 125 % of control
dose: 6.25 mg/kg/injection, schedule: Q01DX005 (ip), vehicle: saline
  T/C: 129 % of control
dose: 12.5 mg/kg/injection, schedule: Q01DX005 (ip), vehicle: saline
  survivor count: 5 of 5
dose: 50.0 mg/kg/injection, schedule: Q01DX005 (ip), vehicle: saline with Tween-80
  survivor count: 0 of 5
dose: 100.0 mg/kg/injection, schedule: Q01DX005 (ip), vehicle: saline with Tween-80
  survivor count: 0 of 5
dose: 200.0 mg/kg/injection, schedule: Q01DX005 (ip), vehicle: saline with Tween-80
  survivor count: 0 of 5

## O=NN(CCCl)C(=O)Oc1cc(Cl)c(Cl)cc1Cl
dose: 12.5 mg/kg/injection, schedule: Q01DX001 (ip), vehicle: Klucel (hydroxypropylcellulose) (HPC)
  T/C: 133 [5 of 6 alive] and 144 % of control
dose: 25.0 mg/kg/injection, schedule: Q01DX001 (ip), vehicle: Klucel (hydroxypropylcellulose) (HPC)
  T/C: 137 % of control
[9]
  T/C: 172, 198 [5 of 6 alive], 250 % of control
  survivor count: 4 of 6
dose: 75.0 mg/kg/injection, schedule: Q01DX001 (ip), vehicle: Klucel (hydroxypropylcellulose) (HPC)
  survivor count: 0 of 6
dose: 75.0 mg/kg/injection, schedule: Q01DX005 (ip), vehicle: Klucel (hydroxypropylcellulose) (HPC)
  survivor count: 2 of 6

## BrCC1(c2ccccc2)OCCO1
[3]
  survivor count: 0 of 6
[4]
  survivor count: 0 of 6
[5]
  survivor count: 0 of 6

## CC(C)(C)c1cc(I)c(O)c(CN)c1
dose: 50.0 mg/kg/injection, schedule: Q01DX009 (ip), vehicle: saline
  T/C: 126 % of control
dose: 100.0 mg/kg/injection, schedule: Q01DX009 (ip), vehicle: saline
  survivor count: 6 of 6

## COc1cc(C2CC(C)(OC)Oc3cc4c(cc32)OCO4)cc(OC)c1O (stereo not drawn)
dose: 60.0 mg/kg/injection, schedule: Q01DX005 (ip), vehicle: saline with Tween-80
  survivor count: 6 of 6
[6]
  survivor count: 6 of 6
[7]
  survivor count: 4 of 6

## CCCCCCCCCCCCCCCC(=O)N(CC#CCN(C(=O)CCCCCCCCCCCCCCC)C(C)CCCN(CC)CC)C(C)CCCN(CC)CC (stereo not drawn)
dose: 100.0 mg/kg/injection, schedule: Q01DX009 (ip), vehicle: other
  survivor count: 6 of 6
dose: 200.0 mg/kg/injection, schedule: Q01DX009 (ip), vehicle: other
  survivor count: 0 of 6
dose: 400.0 mg/kg/injection, schedule: Q01DX009 (ip), vehicle: other
  survivor count: 0 of 6

## COc1cccc(OC)c1SSCCN
dose: 400.0 mg/kg/injection, schedule: Q04DX002 (ip), vehicle: suspension in saline
  survivor count: 5 of 5

## O=C1OC(OCC#CCOC2OC(=O)C(Cl)=C2Cl)C(Cl)=C1Cl (stereo not drawn)
[6]
  survivor count: 0 of 6
[7]
  survivor count: 0 of 6

## O=C(N/N=C/c1ccccc1[OH2+])c1ccncc1.O=S(=O)([O-])[O-].[Fe+2]
[10]
  survivor count: 0 of 6

## C[n+]1[se]c2ccccc2c1Cl
dose: 25.0 mg/kg/injection, schedule: Q01DX009 (ip), vehicle: Klucel (hydroxypropylcellulose) (HPC)
  survivor count: 4 of 6
dose: 50.0 mg/kg/injection, schedule: Q01DX009 (ip), vehicle: Klucel (hydroxypropylcellulose) (HPC)
  survivor count: 0 of 6

## COc1c2ccccc2c(C)c2ccc3ccccc3c12
[10]
  survivor count: 6 of 6

From PubChem BioAssay AID330 (DTP/NCI, 2004)
